Drawing on paper PMC11543891, “Expression, purification, and characterization of diacylated Lipo-YcjN from Escherichia coli” (The Journal of Biological Chemistry, 2024), this text covers binding for one molecule.

No constants are given. Whether binding was seen depends on the method and setting.

This experiment deals with ΔYcjN (non-lipidated YcjN, residues 1-21 deleted) (E. coli K-12) (UniProt P76042). Kind of experiment: SEC; Hiload 16/600 Superdex 200 pg, 25 mM Tris-HCl pH 7.5, 100 mM NaCl, run without LMNG and with 0.01% LMNG; elution volumes compared with gel filtration standards; both purified. For orientation: In gel filtration, larger molecules generally elute earlier.

B1: ΔYcjN (non-lipidated YcjN, residues 1-21 deleted) (domain or fragment, UniProt P76042 22-430)
chain: KEENKTNVSIEFMHSSVEQERQAVISKLIARFEKENPGITVKQVPVEEDAYNTKVITLSRSGSLPEVIETSHDYAKVMDKEQLIDRKAVATVISNVGEGAFYDGVLRIVRTEDGSAWTGVPVSAWIGGIWYRKDVLAKAGLEEPKNWQQLLDVAQKLNDPANKKYGIALPTAESVLTEQSFSQFALSNQANVFNAEGKITLDTPEMMQALTYYRDLTANTMPGSNDIMEVKDAFMNGTAPMAIYSTYILPAVIKEGDPKNVGFVVPTEKNSAVYGMLTSLTITAGQKTEETEAAEKFVTFMEQADNIADWVMMSPGAALPVNKAVVTTATWKDNDVIKALGELPNQLIGELPNIQVFGAVGDKNFTRMGDVTGSGVVSSMVHNVTVGKADLSTTLQASQKKLDELIEQH
In the case of B1, the binding entry is “no binding”.
